Measurements reported in PubChem BioAssay AID1259254 (NCATS, 2017)
The whole screen tested about 59,000 reagents; this is a part drawn at random. About 1,550 of them (2.6%) were called active. 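G2 share is only a proxy for re-replication; each gene was hit by three separate siRNAs, and active genes were retested.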 Entries without a mark were called inactive. Reagents against one gene are numbered here. Not all columns of the deposit are shown. No sequences are given here. The record does not give: the amount of reagent.

- Assay: 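Genome-wide screen for genes that prevent DNA re-replication in cancer cells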 (primary screen)
- Cell system: human HCT116 colorectal cancer cells
- Reagents: single siRNA against human genes
- Time to read-out: 3 days
- Measured: 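Nuclei stained with Hoechst and imaged; cell-cycle phase assigned by DNA content; G2 share scaled per plate, non-targeting siRNA 0%, GMNN siRNA 100%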
- Reading the numbers: G2 robust z-score and G2 cells, % of GMNN control: higher = more G2 cells, more excess DNA replication
- Active means: 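An siRNA counts as active if its G2 robust z-score lies at least 5 MADs above the screen median; here such calls match roughly 38% of GMNN control or more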

The first 3 entries, ahead of the listing:
| target | reagent no. | G2 robust z-score | G2 cells, % of GMNN control |
| --- | --- | --- | --- |
| SDS | 1 | -1.27 | -5.95 |
| SDS | 2 | 2.29 | 19.1 |
| SDS | 3 | 3.86 | 30.1 |

Main list, from the start:
| target | reagent no. | G2 robust z-score | G2 cells, % of GMNN control |
| --- | --- | --- | --- |
| SDS | 1 | -1.27 | -5.95 |
| SDS | 2 | 2.29 | 19.1 |
| SDS | 3 | 3.86 | 30.1 |
| ITPR2 | 1 | -0.83 | -2.87 |
| ITPR2 | 2 | 1.24 | 11.7 |
| ITPR2 | 3 | 1.41 | 12.9 |
| CLEC1B | 1 | 1.12 | 10.9 |
| CLEC1B | 2 | 1.11 | 10.8 |
| CLEC1B | 3 | 0.189 | 4.29 |
| MCHR2-AS1 | 1 | -0.078 | 2.42 |
| MCHR2-AS1 | 2 | 0.148 | 4.01 |
| MCHR2-AS1 | 3 | -0.505 | -0.585 |
| UMPS | 1 | 1.44 | 13.1 |
| UMPS | 2 | -0.775 | -2.49 |
| UMPS | 3 | -0.903 | -3.38 |
| BRINP1 | 1 | 3.44 | 27.1 |
| BRINP1 | 2 | 2.26 | 18.8 |
| BRINP1 | 3 | -0.369 | 0.374 |
| YIPF5 | 1 | -0.146 | 1.94 |
| YIPF5 | 2 | 0.555 | 6.87 |
| YIPF5 | 3 | 1.21 | 11.5 |
| MYO19 | 1 | -0.565 | -1.01 |
| MYO19 | 2 | 15.5 (active) | 112 |
| MYO19 | 3 | -0.898 | -3.35 |
| TNFAIP2 | 1 | 2.22 | 18.6 |
| TNFAIP2 | 2 | -0.35 | 0.505 |
| TNFAIP2 | 3 | -0.341 | 0.572 |
| ZNF500 | 1 | -0.468 | -0.324 |
| ZNF500 | 2 | 0.448 | 6.12 |
| ZNF500 | 3 | -0.872 | -3.17 |
